Reference: patent publication US5610185A, “Method for the treatment of hyperproliferative epithelial skin diseases by topical application of hydroxylated aromatic protein cross-linking compounds” (The United States of America as represented by the …, priority 1995, dated 1997)
Entries after “also recorded” stand apart in the source; their conditions may differ.

Tested on: primary mouse keratinocytes
Experiment: Cornified envelope (cross-linked protein) assay, primary mouse keratinocytes
Format: cell-based
Details: LTB 2 and HPB 2 at 100 μM; MC 75 or 1000 μM or staurosporine 10 nM; 48 hours
Description: FIGS. 3A and 3B. A: Time course for cornification of primary mouse keratinocytes in response to MC. Boxes represent […] Ca^2+, triangles represent 100 μM MC, 1.4 mM Ca^2+, and solid circles represent 1 mM MC, 1.4 mM Ca^2+. […] Cells were incubated in medium with 1.4 mM Ca^2+ and MC for 4 hours, then were incubated with MTT (0.5 mg/ml in medium) for a further 4 hours before determination of formazan production.
Primary mouse keratinocytes were isolated from BALB/c newborn mouse skin. […]
The assay measures insoluble cross-linked protein envelopes as described (Hough-Monroe et al. Analytical biochem., 199, 25-28, 1991), with modifications as follows. […] Absorbance of eluate was measured on a Titertek plate reader at 600 nm.
Cells were seeded at low density and were treated with MC for 3 days. Cells were then counted and increase in cell number was compared to untreated controls, or cells were processed for cross-linked protein.
Inhibitors were added 30 mins before MC or stsp (FIG. 6). Cross-linked protein was measured by the cornified envelope assay, described in Example 2.

CN[C@@H]1C[C@H]2O[C@@](C)([C@@H]1OC)n1c3ccccc3c3c4c(c5c6ccccc6n2c5c31)C(=O)NC4 [staurosporine, reference compound]
effect of transglutaminase inhibitors on cross-linking activity: as is the activity of staurosporine; also recorded: unlike that induced by the kinase inhibitor staurosporine
